{
  "sequences": {"note": "Sequences of proteins named here, by UniProt entry; tags and fusion partners are left off. A change or cut given only in a name is not applied to a line headed by its entry.", "UniProt O43791": "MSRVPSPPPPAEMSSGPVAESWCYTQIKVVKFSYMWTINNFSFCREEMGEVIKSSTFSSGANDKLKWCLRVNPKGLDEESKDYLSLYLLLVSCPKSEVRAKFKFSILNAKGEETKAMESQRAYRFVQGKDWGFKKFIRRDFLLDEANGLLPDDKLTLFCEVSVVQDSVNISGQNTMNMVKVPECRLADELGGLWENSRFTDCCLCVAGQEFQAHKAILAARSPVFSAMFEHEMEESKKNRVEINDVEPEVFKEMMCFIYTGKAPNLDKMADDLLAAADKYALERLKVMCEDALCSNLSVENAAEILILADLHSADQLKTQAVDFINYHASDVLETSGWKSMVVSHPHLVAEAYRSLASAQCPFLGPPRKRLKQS", "UniProt P10275": "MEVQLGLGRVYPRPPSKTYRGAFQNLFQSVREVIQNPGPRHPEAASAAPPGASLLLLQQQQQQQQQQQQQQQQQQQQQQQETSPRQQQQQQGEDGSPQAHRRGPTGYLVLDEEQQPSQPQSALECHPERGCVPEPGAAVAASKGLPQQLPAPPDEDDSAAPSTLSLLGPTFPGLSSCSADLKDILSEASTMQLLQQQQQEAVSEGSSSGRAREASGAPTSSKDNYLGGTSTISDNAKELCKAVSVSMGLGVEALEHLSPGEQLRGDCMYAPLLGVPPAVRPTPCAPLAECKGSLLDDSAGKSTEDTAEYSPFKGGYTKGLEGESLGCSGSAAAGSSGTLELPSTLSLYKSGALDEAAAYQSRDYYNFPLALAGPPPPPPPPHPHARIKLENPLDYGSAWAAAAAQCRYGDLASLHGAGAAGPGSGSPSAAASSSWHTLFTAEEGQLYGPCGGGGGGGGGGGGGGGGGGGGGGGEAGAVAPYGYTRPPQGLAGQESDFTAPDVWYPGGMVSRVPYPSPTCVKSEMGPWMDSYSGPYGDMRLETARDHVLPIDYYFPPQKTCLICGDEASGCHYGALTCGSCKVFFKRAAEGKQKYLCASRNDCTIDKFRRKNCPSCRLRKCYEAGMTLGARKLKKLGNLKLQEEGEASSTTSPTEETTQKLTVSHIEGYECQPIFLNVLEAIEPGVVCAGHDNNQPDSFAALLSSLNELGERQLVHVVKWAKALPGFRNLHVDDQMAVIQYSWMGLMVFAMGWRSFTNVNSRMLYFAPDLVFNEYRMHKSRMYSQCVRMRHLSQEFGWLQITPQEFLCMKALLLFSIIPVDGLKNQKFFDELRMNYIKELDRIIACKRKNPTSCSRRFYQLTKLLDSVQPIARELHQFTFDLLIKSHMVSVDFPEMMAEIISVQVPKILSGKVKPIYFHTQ"},
  "source": "paper PMC4361392",
  "target": "Myc-SPOP wild type (human) (UniProt O43791)",
  "assay": "co-IP; 293T cells transfected with Myc-SPOP and AR WT or deletion mutants 16 hr, 20 µM MG132 for 8 hr; coIP with Myc antibody, WB (Figure 3B)",
  "note": "No constants are given. Whether binding was seen depends on the method and setting. Binding seen in cells or lysates may run through a third protein. A result given as binding can be weak or reduced; the word gives no strength.",
  "data": [
    {"substance": "AR ΔEGSSS deletion mutant (from UniProt P10275)", "values": [
      {"measurement": "binding", "value": "binds"}
    ]}
  ]
}
